Assay results from the supplement of paper PMC7666118.
This is one part of the list.

The chains behind the UniProt entries cited, without tags or fusion partners. Where a name states a change or a piece, a line headed by the entry shows the natural chain unless it says otherwise.
UniProt P22415: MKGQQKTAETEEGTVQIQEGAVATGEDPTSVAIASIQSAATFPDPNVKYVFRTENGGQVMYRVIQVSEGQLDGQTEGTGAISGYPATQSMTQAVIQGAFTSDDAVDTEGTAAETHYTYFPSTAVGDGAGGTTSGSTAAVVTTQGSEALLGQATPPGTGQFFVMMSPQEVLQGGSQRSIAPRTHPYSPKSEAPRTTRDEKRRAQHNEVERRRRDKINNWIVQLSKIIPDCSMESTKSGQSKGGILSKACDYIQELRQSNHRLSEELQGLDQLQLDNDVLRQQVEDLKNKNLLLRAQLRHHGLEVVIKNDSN
UniProt Q9HBM0: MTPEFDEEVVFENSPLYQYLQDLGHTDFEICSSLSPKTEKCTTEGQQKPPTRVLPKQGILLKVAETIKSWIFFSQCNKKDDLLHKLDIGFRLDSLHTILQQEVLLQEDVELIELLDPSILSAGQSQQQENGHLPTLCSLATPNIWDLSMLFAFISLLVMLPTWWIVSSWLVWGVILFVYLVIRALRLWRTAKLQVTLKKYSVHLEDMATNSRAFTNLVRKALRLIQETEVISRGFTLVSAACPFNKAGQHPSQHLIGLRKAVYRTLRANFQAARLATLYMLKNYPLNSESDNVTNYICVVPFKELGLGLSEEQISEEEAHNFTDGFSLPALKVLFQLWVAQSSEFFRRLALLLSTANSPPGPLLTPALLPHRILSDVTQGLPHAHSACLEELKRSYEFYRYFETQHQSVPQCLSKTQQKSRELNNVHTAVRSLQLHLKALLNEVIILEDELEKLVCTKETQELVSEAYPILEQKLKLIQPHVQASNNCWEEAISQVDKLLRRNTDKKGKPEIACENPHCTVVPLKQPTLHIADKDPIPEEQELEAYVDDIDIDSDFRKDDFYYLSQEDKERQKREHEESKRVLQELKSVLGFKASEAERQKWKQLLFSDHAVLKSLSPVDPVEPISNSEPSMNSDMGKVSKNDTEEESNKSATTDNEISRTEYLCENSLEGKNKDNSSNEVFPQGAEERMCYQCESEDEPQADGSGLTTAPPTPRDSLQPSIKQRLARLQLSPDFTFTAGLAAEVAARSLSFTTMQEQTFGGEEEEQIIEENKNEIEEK
UniProt O60701: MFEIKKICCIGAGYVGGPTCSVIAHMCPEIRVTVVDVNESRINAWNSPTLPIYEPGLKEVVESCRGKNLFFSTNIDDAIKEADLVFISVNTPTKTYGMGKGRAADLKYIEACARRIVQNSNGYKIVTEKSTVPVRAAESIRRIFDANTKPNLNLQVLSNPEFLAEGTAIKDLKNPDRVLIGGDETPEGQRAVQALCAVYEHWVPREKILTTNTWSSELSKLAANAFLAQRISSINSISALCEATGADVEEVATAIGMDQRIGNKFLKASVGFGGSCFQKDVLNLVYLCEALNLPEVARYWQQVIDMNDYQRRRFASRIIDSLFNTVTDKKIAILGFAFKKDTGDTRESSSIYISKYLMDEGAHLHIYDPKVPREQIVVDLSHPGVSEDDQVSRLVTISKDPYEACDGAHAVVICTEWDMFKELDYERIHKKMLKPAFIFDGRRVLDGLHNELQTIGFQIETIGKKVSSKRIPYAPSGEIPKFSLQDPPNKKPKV
UniProt O94966: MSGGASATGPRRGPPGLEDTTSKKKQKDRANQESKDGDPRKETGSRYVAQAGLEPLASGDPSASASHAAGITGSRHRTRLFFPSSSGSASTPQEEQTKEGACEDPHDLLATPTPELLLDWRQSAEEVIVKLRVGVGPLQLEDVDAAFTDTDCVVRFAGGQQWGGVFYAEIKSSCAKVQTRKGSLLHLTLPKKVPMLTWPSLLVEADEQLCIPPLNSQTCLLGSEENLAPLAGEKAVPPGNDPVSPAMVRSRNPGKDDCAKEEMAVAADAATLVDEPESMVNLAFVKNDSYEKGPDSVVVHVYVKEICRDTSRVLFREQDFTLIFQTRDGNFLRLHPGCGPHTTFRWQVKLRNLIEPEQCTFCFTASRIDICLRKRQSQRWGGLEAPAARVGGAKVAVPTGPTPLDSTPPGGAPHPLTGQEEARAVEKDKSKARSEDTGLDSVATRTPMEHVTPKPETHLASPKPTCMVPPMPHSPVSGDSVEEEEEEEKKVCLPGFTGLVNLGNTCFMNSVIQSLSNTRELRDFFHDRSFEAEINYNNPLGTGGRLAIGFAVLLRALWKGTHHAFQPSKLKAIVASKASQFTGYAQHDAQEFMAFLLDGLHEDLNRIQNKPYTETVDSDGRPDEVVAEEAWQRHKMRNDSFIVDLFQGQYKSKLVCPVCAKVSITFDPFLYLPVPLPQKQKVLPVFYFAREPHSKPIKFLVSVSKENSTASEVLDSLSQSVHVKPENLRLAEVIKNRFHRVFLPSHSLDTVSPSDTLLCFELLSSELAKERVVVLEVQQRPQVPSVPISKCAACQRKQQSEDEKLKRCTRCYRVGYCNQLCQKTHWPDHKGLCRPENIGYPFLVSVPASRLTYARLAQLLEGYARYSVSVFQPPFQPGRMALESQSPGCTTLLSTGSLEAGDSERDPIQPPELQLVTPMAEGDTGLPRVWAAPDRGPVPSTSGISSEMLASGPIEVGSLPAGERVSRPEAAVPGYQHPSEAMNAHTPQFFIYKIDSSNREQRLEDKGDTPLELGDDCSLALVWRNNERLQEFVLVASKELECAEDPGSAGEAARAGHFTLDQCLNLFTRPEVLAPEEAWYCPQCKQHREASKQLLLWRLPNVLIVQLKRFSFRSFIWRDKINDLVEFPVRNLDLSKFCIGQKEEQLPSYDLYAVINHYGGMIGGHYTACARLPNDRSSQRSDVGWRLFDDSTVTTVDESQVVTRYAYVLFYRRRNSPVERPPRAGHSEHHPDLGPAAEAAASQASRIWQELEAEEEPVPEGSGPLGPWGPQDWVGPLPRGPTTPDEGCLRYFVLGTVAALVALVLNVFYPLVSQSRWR
UniProt Q9Y6W5, whole entry: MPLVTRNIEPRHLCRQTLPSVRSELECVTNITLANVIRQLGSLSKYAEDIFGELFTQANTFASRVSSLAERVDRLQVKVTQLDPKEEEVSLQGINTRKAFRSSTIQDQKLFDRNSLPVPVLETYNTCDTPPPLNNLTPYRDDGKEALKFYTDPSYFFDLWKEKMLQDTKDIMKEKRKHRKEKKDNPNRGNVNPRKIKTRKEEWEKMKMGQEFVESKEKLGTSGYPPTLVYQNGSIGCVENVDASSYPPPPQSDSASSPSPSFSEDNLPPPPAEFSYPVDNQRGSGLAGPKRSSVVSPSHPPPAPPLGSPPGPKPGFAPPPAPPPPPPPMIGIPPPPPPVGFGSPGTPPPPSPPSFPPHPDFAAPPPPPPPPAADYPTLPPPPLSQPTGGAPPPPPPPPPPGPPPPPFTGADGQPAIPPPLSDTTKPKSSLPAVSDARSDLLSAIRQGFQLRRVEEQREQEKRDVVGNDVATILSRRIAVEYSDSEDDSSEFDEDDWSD
UniProt Q6IBS0: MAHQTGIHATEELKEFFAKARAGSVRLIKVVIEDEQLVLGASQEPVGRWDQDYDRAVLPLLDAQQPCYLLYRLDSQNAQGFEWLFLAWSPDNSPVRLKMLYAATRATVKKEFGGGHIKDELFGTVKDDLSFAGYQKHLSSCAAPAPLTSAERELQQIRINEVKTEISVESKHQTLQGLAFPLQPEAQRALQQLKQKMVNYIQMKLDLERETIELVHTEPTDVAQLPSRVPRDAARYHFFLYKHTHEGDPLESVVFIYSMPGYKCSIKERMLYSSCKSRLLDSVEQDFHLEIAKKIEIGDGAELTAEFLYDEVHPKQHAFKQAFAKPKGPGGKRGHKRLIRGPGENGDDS
UniProt P51965: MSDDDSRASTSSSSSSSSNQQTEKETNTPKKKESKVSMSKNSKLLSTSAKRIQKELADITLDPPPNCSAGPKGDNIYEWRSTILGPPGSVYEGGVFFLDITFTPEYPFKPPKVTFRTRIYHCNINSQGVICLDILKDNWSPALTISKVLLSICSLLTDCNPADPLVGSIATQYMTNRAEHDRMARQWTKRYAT
UniProt Q7Z6J8: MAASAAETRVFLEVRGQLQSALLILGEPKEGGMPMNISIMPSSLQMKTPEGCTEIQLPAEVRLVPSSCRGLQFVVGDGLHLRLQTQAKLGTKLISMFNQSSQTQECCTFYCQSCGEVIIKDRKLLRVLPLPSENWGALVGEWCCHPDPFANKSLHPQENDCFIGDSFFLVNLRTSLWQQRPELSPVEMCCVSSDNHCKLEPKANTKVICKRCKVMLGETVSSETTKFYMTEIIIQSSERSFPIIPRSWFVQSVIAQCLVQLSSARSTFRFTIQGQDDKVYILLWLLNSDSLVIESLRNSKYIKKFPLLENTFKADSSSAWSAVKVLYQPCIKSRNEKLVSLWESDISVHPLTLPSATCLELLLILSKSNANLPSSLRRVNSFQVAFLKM
UniProt P23381: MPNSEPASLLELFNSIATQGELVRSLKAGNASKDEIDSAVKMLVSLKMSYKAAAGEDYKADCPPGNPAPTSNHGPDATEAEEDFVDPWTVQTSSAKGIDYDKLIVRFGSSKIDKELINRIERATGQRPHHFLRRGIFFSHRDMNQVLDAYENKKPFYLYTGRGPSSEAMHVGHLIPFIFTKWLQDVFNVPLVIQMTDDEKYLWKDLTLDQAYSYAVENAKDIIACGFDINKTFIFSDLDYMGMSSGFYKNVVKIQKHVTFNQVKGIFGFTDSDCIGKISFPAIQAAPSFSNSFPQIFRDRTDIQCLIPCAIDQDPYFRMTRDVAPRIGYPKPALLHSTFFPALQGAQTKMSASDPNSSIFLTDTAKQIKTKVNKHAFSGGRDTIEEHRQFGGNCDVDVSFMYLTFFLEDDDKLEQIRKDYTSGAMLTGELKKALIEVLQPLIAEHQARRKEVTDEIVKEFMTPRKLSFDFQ
UniProt O75317, whole entry: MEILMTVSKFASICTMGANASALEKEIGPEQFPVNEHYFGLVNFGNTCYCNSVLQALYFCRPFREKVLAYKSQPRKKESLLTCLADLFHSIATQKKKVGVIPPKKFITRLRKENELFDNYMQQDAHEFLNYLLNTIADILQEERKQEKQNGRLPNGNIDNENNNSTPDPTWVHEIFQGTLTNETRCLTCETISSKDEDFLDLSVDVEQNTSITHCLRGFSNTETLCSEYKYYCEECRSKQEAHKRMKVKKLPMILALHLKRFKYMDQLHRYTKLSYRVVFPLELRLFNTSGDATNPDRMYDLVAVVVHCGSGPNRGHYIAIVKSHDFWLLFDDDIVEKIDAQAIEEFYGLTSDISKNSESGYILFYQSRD
UniProt Q6PHR2: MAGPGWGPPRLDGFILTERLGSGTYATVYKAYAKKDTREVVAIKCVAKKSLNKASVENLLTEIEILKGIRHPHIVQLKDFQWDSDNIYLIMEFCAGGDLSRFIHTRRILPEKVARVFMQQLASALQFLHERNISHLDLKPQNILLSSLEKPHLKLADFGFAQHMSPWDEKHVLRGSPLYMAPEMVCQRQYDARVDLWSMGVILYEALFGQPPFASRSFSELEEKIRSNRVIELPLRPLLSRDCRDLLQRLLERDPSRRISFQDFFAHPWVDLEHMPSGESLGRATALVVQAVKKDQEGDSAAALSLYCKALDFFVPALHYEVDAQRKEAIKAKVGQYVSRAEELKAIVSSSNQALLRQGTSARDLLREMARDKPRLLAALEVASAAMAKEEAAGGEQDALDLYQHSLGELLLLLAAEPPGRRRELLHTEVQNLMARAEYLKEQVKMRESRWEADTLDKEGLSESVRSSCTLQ
UniProt P63027, whole entry: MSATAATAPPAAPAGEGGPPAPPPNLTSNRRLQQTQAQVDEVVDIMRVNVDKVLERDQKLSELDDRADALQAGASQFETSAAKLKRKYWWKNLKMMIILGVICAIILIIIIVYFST
UniProt P17480: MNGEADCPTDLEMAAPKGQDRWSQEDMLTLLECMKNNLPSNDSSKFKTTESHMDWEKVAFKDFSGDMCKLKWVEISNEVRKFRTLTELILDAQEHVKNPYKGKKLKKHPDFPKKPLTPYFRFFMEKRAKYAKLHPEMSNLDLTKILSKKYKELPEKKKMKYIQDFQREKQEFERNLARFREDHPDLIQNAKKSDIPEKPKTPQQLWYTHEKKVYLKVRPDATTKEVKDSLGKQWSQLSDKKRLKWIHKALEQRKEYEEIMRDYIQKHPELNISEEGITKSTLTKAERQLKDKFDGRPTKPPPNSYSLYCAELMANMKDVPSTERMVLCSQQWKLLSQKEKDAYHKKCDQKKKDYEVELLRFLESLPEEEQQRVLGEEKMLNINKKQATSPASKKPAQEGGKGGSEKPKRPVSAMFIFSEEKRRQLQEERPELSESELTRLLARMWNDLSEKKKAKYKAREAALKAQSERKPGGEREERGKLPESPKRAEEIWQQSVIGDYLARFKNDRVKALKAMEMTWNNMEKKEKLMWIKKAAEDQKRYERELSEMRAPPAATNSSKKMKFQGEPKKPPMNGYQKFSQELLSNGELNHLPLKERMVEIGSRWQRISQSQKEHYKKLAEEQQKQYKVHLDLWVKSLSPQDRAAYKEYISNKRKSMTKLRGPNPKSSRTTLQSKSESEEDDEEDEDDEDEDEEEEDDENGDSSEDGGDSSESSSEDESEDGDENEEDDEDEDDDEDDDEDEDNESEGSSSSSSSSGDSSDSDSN

What follows are targets tested with COc1ccc(Cn2ccc3cc(C)c(C(=O)NO)cc32)cc1 (assay: dose-dependent thermal stabilisation call (2D-TPP, DLPTP, 10% FDR) (binary (1 = stabilised)); higher = stabilised by the compound). Conditions: system: HL-60 intact cells; concentration range 0.04-10 µM.
Method: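 2D thermal proteome profiling in intact HL-60 cells treated with BRD-3811 (0, 0.04, 0.29, 2, 10 uM) for 90 min at 37 C, then heated 3 min at one of 12 temperatures (42-63.9 C). Soluble protein was quantified by TMT10 MS. The value is the DLPTP call of the paper: dose-dependent thermal stabilisation over all temperatures at 10% FDR (F-test of a dose-response against a flat model); one experiment, one call per tested protein.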

Target | dose-dependent thermal stabilisation call
USO1 (UniProt O60763) | inactive: 0
TTC7A (UniProt Q9ULT0) | inactive: 0
UHRF1BP1L (UniProt A0JNW5) | inactive: 0
USF1 (UniProt P22415) | inactive: 0
VEZT (UniProt Q9HBM0) | inactive: 0
UGDH (UniProt O60701) | inactive: 0
WDHD1 (UniProt O75717) | inactive: 0
USP19 (UniProt O94966) | inactive: 0
UBL7 (UniProt Q96S82) | inactive: 0
UFSP2 (UniProt Q9NUQ7) | inactive: 0
VLDLR (UniProt P98155) | inactive: 0
WASF2 (UniProt Q9Y6W5) | inactive: 0
TWF2 (UniProt Q6IBS0) | inactive: 0
UBE2E1 (UniProt P51965) | inactive: 0
UBASH3B (UniProt Q8TF42) | inactive: 0
UBE2CBP (UniProt Q7Z6J8) | inactive: 0
UBQLN4 (UniProt Q9NRR5) | inactive: 0
TXNRD2 (UniProt Q9NNW7) | inactive: 0
WARS (UniProt P23381) | inactive: 0
TUBB2C (UniProt P68371) | inactive: 0
USP15 (UniProt Q9Y4E8) | inactive: 0
USP12 (UniProt O75317) | inactive: 0
TXNDC9 (UniProt O14530) | inactive: 0
ULK3 (UniProt Q6PHR2) | inactive: 0
VAMP2 (UniProt P63027) | inactive: 0
UBTF (UniProt P17480) | inactive: 0
UNC93B1 (UniProt Q9H1C4) | inactive: 0

Looked up one by one from above:
Target | dose-dependent thermal stabilisation call
USP19 (UniProt O94966) | inactive: 0
UBQLN4 (UniProt Q9NRR5) | inactive: 0
